From article PMC4476799, “Englerin A Agonizes the TRPC4/C5 Cation Channels to Inhibit Tumor Cell Line Proliferation” (PLoS ONE, 2015)
Further values from the same series stand in other lists.

Test system: cancer cell lines from the cancer cell line encyclopedia (CCLE)
Assay: Cell line profiling (CLiP) proliferation experiment
Assay type: cell-based
Set-up: ACTIVITY_AREA: scale not given here; AMAX: unit not given here
Protocol: Compound profiling experiment and data analysis was performed as previously described. Data was imported and plotted using the Tibco Spotfire DXP application. Lines were categorized as sensitive, intermediate and refractory as follows: Amax<-40 & Inflection Point <2 ~ Sensitive, Amax>-20 & Inflection Point >10 ~ Refractory, all else were called Intermediate. Cancer Cell line HG-U133 Plus 2 data was processed and normalized as described. […] Five sets of refractory cell lines were generated from the pool of refractory cell lines trying to match the lineage composition of the set of sensitive cell lines. The limma package was used as previously described to perform the statistical comparison.

[1] = cell line MV-4-11 (haematopoietic_and_lymphoid_tissue)
[2] = cell line NALM-6 (haematopoietic_and_lymphoid_tissue)
[3] = cell line NB-1 (autonomic_ganglia)
[4] = cell line NB-4 (haematopoietic_and_lymphoid_tissue)
[5] = cell line NCI-H1048 (lung, small_cell_carcinoma)
[6] = cell line NCI-H1299 (lung, non_small_cell_carcinoma)
[7] = cell line NCI-H1355 (lung, adenocarcinoma)

CC(C)[C@@]12C[C@@H](O)[C@@](C)(O1)[C@@H]1CC[C@@H](C)[C@H]1[C@@H]2OC(=O)/C=C/c1ccccc1 [Englerin B]
RESPONSE (cell line MOR/CPR): INTERMEDIATE | ACTIVITY_AREA (cell line MOR/CPR (lung)): 20.21 | AMAX (cell line MOR/CPR (lung)): -50.6 | RESPONSE (cell line MOR/CPR (lung)): INTERMEDIATE | ACTIVITY_AREA (cell line MSTO-211H): 22.35 | AMAX (cell line MSTO-211H): -56.17 | RESPONSE (cell line MSTO-211H): INTERMEDIATE | ACTIVITY_AREA (cell line MSTO-211H (pleura)): 22.35 | AMAX (cell line MSTO-211H (pleura)): -56.17 | RESPONSE (cell line MSTO-211H (pleura)): INTERMEDIATE | ACTIVITY_AREA [1]: 65.43 | AMAX [1]: -93.67 | RESPONSE [1]: INTERMEDIATE | ACTIVITY_AREA (cell line MeWo (skin)): 40.65 | AMAX (cell line MeWo (skin)): -53.35 | RESPONSE (cell line MeWo (skin)): INTERMEDIATE | ACTIVITY_AREA (cell line MeWo (skin, NS)): 40.65 | AMAX (cell line MeWo (skin, NS)): -53.35 | RESPONSE (cell line MeWo (skin, NS)): INTERMEDIATE | ACTIVITY_AREA (cell line Mel202): 35.67 | AMAX (cell line Mel202): -41.41 | RESPONSE (cell line Mel202): INTERMEDIATE | ACTIVITY_AREA (cell line Mel202 (eye)): 35.67 | AMAX (cell line Mel202 (eye)): -41.41 | RESPONSE (cell line Mel202 (eye)): INTERMEDIATE | ACTIVITY_AREA (cell line Mel285): 14.87 | AMAX (cell line Mel285): -41.93 | RESPONSE (cell line Mel285): INTERMEDIATE | ACTIVITY_AREA (cell line Mel285 (eye)): 14.87 | AMAX (cell line Mel285 (eye)): -41.93 | RESPONSE (cell line Mel285 (eye)): INTERMEDIATE | ACTIVITY_AREA (cell line NALM-6): 58.63 | AMAX (cell line NALM-6): -98.04 | RESPONSE (cell line NALM-6): INTERMEDIATE | ACTIVITY_AREA [2]: 58.63 | AMAX [2]: -98.04 | RESPONSE [2]: INTERMEDIATE | ACTIVITY_AREA (cell line NB-1): 67.54 | AMAX (cell line NB-1): -62.65 | RESPONSE (cell line NB-1): INTERMEDIATE | ACTIVITY_AREA [3]: 67.54 | AMAX [3]: -62.65 | RESPONSE [3]: INTERMEDIATE | ACTIVITY_AREA (cell line NB-4): 42.88 | AMAX (cell line NB-4): -56.01 | RESPONSE (cell line NB-4): INTERMEDIATE | ACTIVITY_AREA [4]: 42.88 | AMAX [4]: -56.01 | RESPONSE [4]: INTERMEDIATE | ACTIVITY_AREA (cell line NCI-H28): 68.28 | AMAX (cell line NCI-H28): -73.22 | RESPONSE (cell line NCI-H28): INTERMEDIATE | ACTIVITY_AREA (cell line NCI-H146 (lung)): 25.77 | AMAX (cell line NCI-H146 (lung)): -5.12 | ACTIVITY_AREA (cell line NCI-H196): 25.48 | AMAX (cell line NCI-H196): -3.26 | RESPONSE (cell line NCI-H196): REFRACTORY | ACTIVITY_AREA (cell line NCI-H226): 84.84 | AMAX (cell line NCI-H226): -41.44 | RESPONSE (cell line NCI-H226): INTERMEDIATE | ACTIVITY_AREA (cell line NCI-H358): 28.35 | AMAX (cell line NCI-H358): -65.38 | RESPONSE (cell line NCI-H358): INTERMEDIATE | ACTIVITY_AREA (cell line NCI-H441): 12.16 | AMAX (cell line NCI-H441): -29.95 | RESPONSE (cell line NCI-H441): INTERMEDIATE | ACTIVITY_AREA (cell line NCI-H460): 22.87 | AMAX (cell line NCI-H460): -32.1 | RESPONSE (cell line NCI-H460): INTERMEDIATE | ACTIVITY_AREA (cell line NCI-H647): 65.46 | AMAX (cell line NCI-H647): -63.95 | RESPONSE (cell line NCI-H647): INTERMEDIATE | ACTIVITY_AREA (cell line NCI-H727): 5.2 | AMAX (cell line NCI-H727): 5.53 | RESPONSE (cell line NCI-H727): REFRACTORY | ACTIVITY_AREA (cell line NCI-H810): 14.12 | AMAX (cell line NCI-H810): -56.53 | RESPONSE (cell line NCI-H810): INTERMEDIATE | ACTIVITY_AREA (cell line NCI-H841): 38.09 | AMAX (cell line NCI-H841): -87.59 | RESPONSE (cell line NCI-H841): INTERMEDIATE | ACTIVITY_AREA (cell line NCI-H1048 (lung)): 157.35 | AMAX (cell line NCI-H1048 (lung)): -63.14 | RESPONSE (cell line NCI-H1048 (lung)): INTERMEDIATE | ACTIVITY_AREA [5]: 157.35 | AMAX [5]: -63.14 | RESPONSE [5]: INTERMEDIATE | ACTIVITY_AREA (cell line NCI-H1092): 36.09 | AMAX (cell line NCI-H1092): -35.83 | RESPONSE (cell line NCI-H1092): INTERMEDIATE | ACTIVITY_AREA (cell line NCI-H1092 (lung)): 36.09 | AMAX (cell line NCI-H1092 (lung)): -35.83 | RESPONSE (cell line NCI-H1092 (lung)): INTERMEDIATE | ACTIVITY_AREA (cell line NCI-H1299 (lung)): 36.91 | AMAX (cell line NCI-H1299 (lung)): -77.46 | RESPONSE (cell line NCI-H1299 (lung)): INTERMEDIATE | ACTIVITY_AREA [6]: 36.91 | AMAX [6]: -77.46 | RESPONSE [6]: INTERMEDIATE | ACTIVITY_AREA (cell line NCI-H1341): 41.08 | AMAX (cell line NCI-H1341): -82.94 | RESPONSE (cell line NCI-H1341): INTERMEDIATE | ACTIVITY_AREA (cell line NCI-H1341 (lung)): 41.08 | AMAX (cell line NCI-H1341 (lung)): -82.94 | RESPONSE (cell line NCI-H1341 (lung)): INTERMEDIATE | ACTIVITY_AREA (cell line NCI-H1355 (lung)): 88.25 | AMAX (cell line NCI-H1355 (lung)): -92.69 | RESPONSE (cell line NCI-H1355 (lung)): INTERMEDIATE | ACTIVITY_AREA [7]: 88.25 | AMAX [7]: -92.69 | RESPONSE [7]: INTERMEDIATE | ACTIVITY_AREA (cell line NCI-H1437 (lung)): 17.29 | AMAX (cell line NCI-H1437 (lung)): -45.72 | RESPONSE (cell line NCI-H1437 (lung)): INTERMEDIATE | ACTIVITY_AREA (cell line NCI-H1563): 37.41 | AMAX (cell line NCI-H1563): -36.91 | RESPONSE (cell line NCI-H1563): INTERMEDIATE | ACTIVITY_AREA (cell line NCI-H1563 (lung)): 37.41 | AMAX (cell line NCI-H1563 (lung)): -36.91 | RESPONSE (cell line NCI-H1563 (lung)): INTERMEDIATE | ACTIVITY_AREA (cell line NCI-H1568): 105.3 | AMAX (cell line NCI-H1568): -84.01 | RESPONSE (cell line NCI-H1568): INTERMEDIATE | ACTIVITY_AREA (cell line NCI-H1568 (lung)): 105.3 | AMAX (cell line NCI-H1568 (lung)): -84.01 | RESPONSE (cell line NCI-H1568 (lung)): INTERMEDIATE | ACTIVITY_AREA (cell line NCI-H1573 (lung)): 188.17 | AMAX (cell line NCI-H1573 (lung)): -69.31 | RESPONSE (cell line NCI-H1573 (lung)): INTERMEDIATE | ACTIVITY_AREA (cell line NCI-H1581 (lung)): 35.15 | AMAX (cell line NCI-H1581 (lung)): -92.8 | RESPONSE (cell line NCI-H1581 (lung)): INTERMEDIATE | ACTIVITY_AREA (cell line NCI-H1623): 10.28 | AMAX (cell line NCI-H1623): -43.65 | RESPONSE (cell line NCI-H1623): INTERMEDIATE | ACTIVITY_AREA (cell line NCI-H1623 (lung)): 10.28 | AMAX (cell line NCI-H1623 (lung)): -43.65 | RESPONSE (cell line NCI-H1623 (lung)): INTERMEDIATE | ACTIVITY_AREA (cell line NCI-H1650 (lung)): 37.78 | AMAX (cell line NCI-H1650 (lung)): -54.12 | RESPONSE (cell line NCI-H1650 (lung)): INTERMEDIATE | ACTIVITY_AREA (cell line NCI-H1651 (lung)): 18.25 | AMAX (cell line NCI-H1651 (lung)): -33.21 | RESPONSE (cell line NCI-H1651 (lung)): INTERMEDIATE | ACTIVITY_AREA (cell line NCI-H1666): 40.08 | AMAX (cell line NCI-H1666): -59.97 | RESPONSE (cell line NCI-H1666): INTERMEDIATE | ACTIVITY_AREA (cell line NCI-H1666 (lung)): 40.08 | AMAX (cell line NCI-H1666 (lung)): -59.97 | RESPONSE (cell line NCI-H1666 (lung)): INTERMEDIATE | ACTIVITY_AREA (cell line NCI-H1693): 22.07 | AMAX (cell line NCI-H1693): -29.69 | RESPONSE (cell line NCI-H1693): INTERMEDIATE | ACTIVITY_AREA (cell line NCI-H1693 (lung)): 22.07 | AMAX (cell line NCI-H1693 (lung)): -29.69 | RESPONSE (cell line NCI-H1693 (lung)): INTERMEDIATE | ACTIVITY_AREA (cell line NCI-H1703): 55.52 | AMAX (cell line NCI-H1703): -83.26 | RESPONSE (cell line NCI-H1703): INTERMEDIATE | ACTIVITY_AREA (cell line NCI-H1703 (lung)): 55.52 | AMAX (cell line NCI-H1703 (lung)): -83.26 | RESPONSE (cell line NCI-H1703 (lung)): INTERMEDIATE | ACTIVITY_AREA (cell line NCI-H1734): 38.35 | AMAX (cell line NCI-H1734): -74.81 | RESPONSE (cell line NCI-H1734): INTERMEDIATE | ACTIVITY_AREA (cell line NCI-H1734 (lung)): 38.35 | AMAX (cell line NCI-H1734 (lung)): -74.81 | RESPONSE (cell line NCI-H1734 (lung)): INTERMEDIATE | ACTIVITY_AREA (cell line NCI-H1781): 117.95 | AMAX (cell line NCI-H1781): -63.31 | RESPONSE (cell line NCI-H1781): INTERMEDIATE | ACTIVITY_AREA (cell line NCI-H1781 (lung)): 117.95
